Data published in patent publication US20260124226A1 (priority 2023, published 2026).
Some of these results come from one statement about several compounds together. For at least one compound, name, drawing or mass did not settle the structure.

Tests used:
YFV = assay type: cell-based, Yellow fever virus; conditions: YFV strain YFV 17D, Huh7 cells
DENV2 = assay type: cell-based, Dengue virus 2

**Q.** Which EC50 (YFV) does the source give for CC(C)OC(=O)CNP(=O)(OC[C@@]1(F)O[C@@H](n2ccc(=O)[nH]c2=O)[C@H](O)[C@@H]1O)Oc1ccccc1 (some centres unmarked) [EIDD-3383] here?
**A.** The EC50 was greater than 32 µM.

**Q.** What about the EC50 (DENV2) of the same compound?
**A.** Its EC50 is greater than 32 µM.
